Literature values as cited in patent US20130251783A1, “LIPOSOMES CONTAINING PERMEATION ENHANCERS FOR ORAL DRUG DELIVERY” (Universitat Heidelberg, priority 2011, published 2013).
At least one compound was matched to its structure with a doubt left.

Conditions: room temperature; cited from earlier work

**Q.** Which CMC does the source give for `CCCCCCCCCCCCCCCC[n+]1ccccc1` [CpCl, cetylpyridinium chloride] here?
**A.** The CMC was 0.98 mM.
